Drawing on publication PMC9999558, this text covers binding for four molecules.

Amino acid sequences for entries named in this document (tags omitted). A change or cut given only in a name is not applied to a line headed by its entry.
UniProt Q9BYW2: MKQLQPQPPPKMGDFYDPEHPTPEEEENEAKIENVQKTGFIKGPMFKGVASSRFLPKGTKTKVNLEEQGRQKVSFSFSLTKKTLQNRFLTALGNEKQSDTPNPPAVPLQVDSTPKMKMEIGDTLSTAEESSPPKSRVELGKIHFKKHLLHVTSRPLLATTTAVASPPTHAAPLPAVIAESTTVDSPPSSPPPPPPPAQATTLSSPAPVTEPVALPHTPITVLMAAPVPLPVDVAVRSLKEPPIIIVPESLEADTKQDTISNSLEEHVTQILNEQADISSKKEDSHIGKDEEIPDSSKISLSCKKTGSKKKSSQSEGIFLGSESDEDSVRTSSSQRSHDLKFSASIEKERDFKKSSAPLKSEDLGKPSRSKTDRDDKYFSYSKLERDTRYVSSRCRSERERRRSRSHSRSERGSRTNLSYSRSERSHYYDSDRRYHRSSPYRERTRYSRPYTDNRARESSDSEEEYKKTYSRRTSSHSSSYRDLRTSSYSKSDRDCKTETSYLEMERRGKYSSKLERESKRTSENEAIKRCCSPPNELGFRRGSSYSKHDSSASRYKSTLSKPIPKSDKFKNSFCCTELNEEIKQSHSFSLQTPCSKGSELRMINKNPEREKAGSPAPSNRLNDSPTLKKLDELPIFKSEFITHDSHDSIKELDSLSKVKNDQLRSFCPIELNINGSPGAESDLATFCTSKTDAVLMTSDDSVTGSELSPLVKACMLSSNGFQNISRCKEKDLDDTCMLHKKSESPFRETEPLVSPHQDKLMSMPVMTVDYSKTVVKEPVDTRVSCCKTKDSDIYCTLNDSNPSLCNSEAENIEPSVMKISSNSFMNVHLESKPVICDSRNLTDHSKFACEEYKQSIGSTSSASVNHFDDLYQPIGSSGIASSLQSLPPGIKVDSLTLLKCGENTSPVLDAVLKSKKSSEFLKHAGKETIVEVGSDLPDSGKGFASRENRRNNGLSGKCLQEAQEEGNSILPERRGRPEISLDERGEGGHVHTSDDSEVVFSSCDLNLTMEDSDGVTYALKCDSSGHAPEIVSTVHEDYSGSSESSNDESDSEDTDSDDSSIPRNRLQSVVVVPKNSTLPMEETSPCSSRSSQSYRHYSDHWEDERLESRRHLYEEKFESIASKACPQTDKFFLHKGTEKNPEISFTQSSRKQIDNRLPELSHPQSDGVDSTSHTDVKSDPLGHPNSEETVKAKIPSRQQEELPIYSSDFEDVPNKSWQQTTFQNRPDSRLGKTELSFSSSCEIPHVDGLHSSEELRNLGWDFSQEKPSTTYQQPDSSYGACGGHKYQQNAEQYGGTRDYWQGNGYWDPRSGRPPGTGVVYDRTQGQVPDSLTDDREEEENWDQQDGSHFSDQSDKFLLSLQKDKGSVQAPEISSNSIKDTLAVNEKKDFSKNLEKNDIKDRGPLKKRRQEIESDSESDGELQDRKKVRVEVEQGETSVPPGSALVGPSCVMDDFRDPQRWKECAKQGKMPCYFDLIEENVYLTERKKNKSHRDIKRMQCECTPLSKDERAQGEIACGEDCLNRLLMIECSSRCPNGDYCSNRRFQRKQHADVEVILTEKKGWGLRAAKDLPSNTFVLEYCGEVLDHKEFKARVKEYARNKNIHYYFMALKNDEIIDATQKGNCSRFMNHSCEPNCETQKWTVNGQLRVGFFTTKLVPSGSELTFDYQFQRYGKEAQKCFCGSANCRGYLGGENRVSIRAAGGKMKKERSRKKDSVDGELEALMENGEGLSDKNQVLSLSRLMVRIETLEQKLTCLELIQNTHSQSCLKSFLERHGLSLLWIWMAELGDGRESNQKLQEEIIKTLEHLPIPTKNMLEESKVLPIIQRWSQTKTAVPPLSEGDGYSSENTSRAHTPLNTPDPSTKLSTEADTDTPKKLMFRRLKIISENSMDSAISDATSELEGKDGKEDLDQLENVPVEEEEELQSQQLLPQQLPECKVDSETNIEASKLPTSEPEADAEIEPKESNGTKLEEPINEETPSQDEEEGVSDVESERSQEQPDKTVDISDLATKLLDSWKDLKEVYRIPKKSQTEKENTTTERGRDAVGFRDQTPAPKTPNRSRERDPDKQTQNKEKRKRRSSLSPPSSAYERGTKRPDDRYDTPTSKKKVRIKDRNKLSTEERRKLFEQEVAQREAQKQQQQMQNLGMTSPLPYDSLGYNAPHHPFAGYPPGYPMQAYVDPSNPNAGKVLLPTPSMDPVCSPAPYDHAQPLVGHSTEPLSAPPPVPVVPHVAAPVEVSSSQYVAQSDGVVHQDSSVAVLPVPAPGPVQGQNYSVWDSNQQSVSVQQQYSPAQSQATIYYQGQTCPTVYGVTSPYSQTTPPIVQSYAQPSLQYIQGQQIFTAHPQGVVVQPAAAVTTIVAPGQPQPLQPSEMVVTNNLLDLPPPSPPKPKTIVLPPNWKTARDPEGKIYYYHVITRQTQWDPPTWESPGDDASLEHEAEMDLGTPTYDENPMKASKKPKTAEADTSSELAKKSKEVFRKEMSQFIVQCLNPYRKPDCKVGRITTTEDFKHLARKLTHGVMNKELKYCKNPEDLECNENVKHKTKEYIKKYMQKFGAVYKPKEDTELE
UniProt Q00987: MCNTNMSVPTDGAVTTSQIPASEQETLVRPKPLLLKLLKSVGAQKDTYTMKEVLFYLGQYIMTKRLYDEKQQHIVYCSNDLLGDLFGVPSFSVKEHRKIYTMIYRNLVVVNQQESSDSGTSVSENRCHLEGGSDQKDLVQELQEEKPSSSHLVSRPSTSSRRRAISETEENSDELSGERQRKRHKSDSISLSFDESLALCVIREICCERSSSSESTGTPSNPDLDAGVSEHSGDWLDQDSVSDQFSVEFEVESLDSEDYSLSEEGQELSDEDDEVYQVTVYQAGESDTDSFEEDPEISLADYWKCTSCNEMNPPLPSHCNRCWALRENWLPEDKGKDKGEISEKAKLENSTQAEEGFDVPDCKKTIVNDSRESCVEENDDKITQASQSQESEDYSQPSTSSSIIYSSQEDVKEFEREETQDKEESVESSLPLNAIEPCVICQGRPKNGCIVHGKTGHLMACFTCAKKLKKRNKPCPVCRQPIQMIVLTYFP

Results are given in words; binding and its absence hold for the method and conditions named. Binding seen in cells or lysates may run through a third protein. Some entries that bind do so weakly or less than the wild type.

Assay in all cases: co-IP; endogenous proteins from total lysates of ROSA KIT D816V cells (control medium) and of HMC-1 cells after 24 h proteasome inhibition (10 nM bortezomib); immunoblotting; negative control with a resin conjugated with an anti-IgG1 antibody
(In general: In western blotting, separated proteins are transferred to a membrane and probed.)

Experiment [1] has as its target hyper-ubiquitinated SETD2 (human (endogenous in ROSA KIT D816V and HMC-1)) (UniProt Q9BYW2).
The target of experiment [2] is SETD2 (human (endogenous in ROSA KIT D816V and HMC-1)) (UniProt Q9BYW2).
For experiment [3], the target named is serine/threonine-phosphorylated form of SETD2 (human (endogenous in HMC-1)) (UniProt Q9BYW2).

In the case of “MDM2 (from UniProt Q00987 1-491) (enzyme)”, the binding result in experiment [1] was “binds”.

For the molecule p53 (from UniProt P04637 1-393), the binding entry in experiment [2] is listed as “binds”.

B1: Aurora kinase A (enzyme, UniProt O14965 1-403)
chain: MDRSKENCISGPVKATAPVGGPKRVLVTQQFPCQNPLPVNSGQAQRVLCPSNSSQRIPLQAQKLVSSHKPVQNQKQKQLQATSVPHPVSRPLNNTQKSKQPLPSAPENNPEEELASKQKNEESKKRQWALEDFEIGRPLGKGKFGNVYLAREKQSKFILALKVLFKAQLEKAGVEHQLRREVEIQSHLRHPNILRLYGYFHDATRVYLILEYAPLGTVYRELQKLSKFDEQRTATYITELANALSYCHSKRVIHRDIKPENLLLGSAGELKIADFGWSVHAPSSRRTTLCGTLDYLPPEMIEGRMHDEKVDLWSLGVLCYEFLVGKPPFEANTYQETYKRISRVEFTFPDFVTEGARDLISRLLKHNPSQRPMLREVLEHPWITANSSKPSNCQNKESASKQS
In the case of B1, the binding result in experiment [3] is “binds”.

B2: phospho-Aurora A (enzyme, UniProt O14965 1-403)
chain: B1 chain
modifications: phospho-T288
For B2, the binding result in experiment [3] is “binds”.
